Source: doi:10.1101/2023.08.07.552315 (bioRxiv, 2023)
Results are given in words; binding and its absence hold for the method and conditions named. Some binding calls cover weakened binding; strength is not graded here.

Chains of the proteins cited; added tags and fusions are not shown.
UniProt Q9H081: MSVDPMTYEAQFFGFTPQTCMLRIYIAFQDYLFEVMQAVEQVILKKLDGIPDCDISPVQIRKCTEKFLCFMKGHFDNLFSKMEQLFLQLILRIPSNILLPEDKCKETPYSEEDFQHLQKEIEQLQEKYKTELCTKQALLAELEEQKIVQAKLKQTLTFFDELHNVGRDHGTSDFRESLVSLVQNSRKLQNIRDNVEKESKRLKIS

Assays:
[1] = molecular target: T1, DSN1 (subunit of the Mis12 complex in the KMN cryo-EM sample) (human) (UniProt Q9H410); experiment: cryo-EM structure
T1 sequence: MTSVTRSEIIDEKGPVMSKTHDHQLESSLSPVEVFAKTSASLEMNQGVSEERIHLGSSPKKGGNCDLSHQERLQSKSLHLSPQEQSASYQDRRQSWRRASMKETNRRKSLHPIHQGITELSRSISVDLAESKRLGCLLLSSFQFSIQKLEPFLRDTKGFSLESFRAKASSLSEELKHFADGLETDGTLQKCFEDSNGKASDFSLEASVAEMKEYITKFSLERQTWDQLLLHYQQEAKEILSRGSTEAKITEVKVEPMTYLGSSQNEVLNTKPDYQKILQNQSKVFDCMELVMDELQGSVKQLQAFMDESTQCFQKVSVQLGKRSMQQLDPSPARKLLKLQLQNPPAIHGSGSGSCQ

[2] = molecular target: MIS12 (subunit of the Mis12 complex in the KMN cryo-EM sample) (human) (UniProt Q9H081); experiment: cryo-EM structure

binding [1]: binds | binding [2]: binds
B1: PMF1 (subunit of the Mis12 complex in the KMN cryo-EM sample) (protein, UniProt Q6P1K2 1-205)
chain: MAEASSANLGSGCEEKRHEGSSSESVPPGTTISRVKLLDTMVDTFLQKLVAAGSYQRFTDCYKCFYQLQPAMTQQIYDKFIAQLQTSIREEISDIKEEGNLEAVLNALDKIVEEGKVRKEPAWRPSGIPEKDLHSVMAPYFLQQRDTLRRHVQKQEAENQQLADAVLAGRRQVEELQLQVQAQQQAWQALHREQRELVAVLREPE
